Measured values taken from publication PMC10520872.
Results are given in words; binding and its absence hold for the method and conditions named. Some results given as binding are weak or reduced against the parent protein; the word gives no strength. Where a sequence is shown, tags or fusion partners need not be part of it.

Biological target: T1, Mst77F-V5 (male-specific transcript 77F, recombinant full-length with a C-terminal V5 tag) (Drosophila melanogaster) (UniProt P16909)
T1 sequence: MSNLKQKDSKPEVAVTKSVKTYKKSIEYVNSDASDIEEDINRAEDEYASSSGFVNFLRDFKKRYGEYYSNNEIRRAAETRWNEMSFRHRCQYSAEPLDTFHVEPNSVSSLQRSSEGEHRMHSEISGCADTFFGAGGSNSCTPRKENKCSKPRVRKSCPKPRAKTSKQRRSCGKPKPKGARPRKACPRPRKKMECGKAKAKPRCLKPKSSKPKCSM
Test: co-IP; co-immunoprecipitation of recombinant proteins with free Mst77F-V5 in solution (Fig. S1C); details in Supplementary Experimental Procedures; both purified

B1: recombinant NAP1 (nucleosome assembly protein 1) (protein, UniProt Q9W1G7 1-370)
chain: MDAPAEGHVDPESCNEIEDEKSGSDCQSMPAYMNSVMRRQYLQQMVKMLPAPVQNRIVFLKNLQLQHLNIEAQFFEDVYKLEQKYQVQYQPLFDKRREIIEGKVDPAEEKPQWKEPESSTDNEADAEHFREALSSLKSIPKDAKGIPGFWLTVFRNTAIMSEMVQPHDEPAIRKLIDISIKYDNGHSYTLEFHFDKNEYFSNSVLTKQYVLKSTVDPNDPFAFEGPEIYKCTGCTINWEKKMNLTVKTIRKKQKHKERGAVRTIVKQVPTDSFFNFFSPPEVPSDQEEVDDDSQQILATDFEIGHFLRARIIPKAVLYYTGDIVDDEDDEDEEEYDENEEDEYDDDDAPPPKGPKSAGIKKQSPNDCPNQ
binding: binds

B2: recombinant NLP (nucleoplasmin-like protein) (protein, UniProt Q27415 1-152)
chain: MAEESFYGVTLTAESDSVTWDVDEDYARGQKLVIKQILLGAEAKENEFNVVEVNTPKDSVQIPIAVLKAGETRAVNPDVEFYESKVTFKLIKGSGPVYIHGHNIKDDVEVVDMEEDDEEDDVAEDEEDEHPKKRAKIENAADGKNAKNNKKK
binding: binds
